# From PubChem BioAssay AID2685 (National Center for Advancing Translational Sciences (NCATS), 2010)
# Some of the results follow. These are further read-outs of the screen, such as a control signal, another cell line or another target. No call is given for them. Most of these compounds were active or inconclusive in the main read-out, so they are no random draw. The note in brackets gives the kind of curve behind each potency; many fits are weak.
# Assay: qHTS Assay for Lipid Storage Modulators in Drosophila S3 Cells;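 on cell number change: cells counted by Cell Tracker Red CMTPX staining in the red channel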
# Settings: BODIPY lipid droplet fluorescence, 18-24 h; for cell number change: measured here: cell count max response, cells fed with added oleic acid
# Method in brief: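 Drosophila S3 cells got compounds at several concentrations plus oleic acid (400 uM solution). Laser-scanning cytometry with 488 nm excitation read lipid droplets at 500-530 nm and cells at 575-640 nm. Percent activity was relative to 20 uM Triacsin C.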
# [1] = measured here: cell number channel AC50, cells fed with added oleic acid
# [2] = measured here: lipid fluorescence (Fed channel) AC50, cells fed with added oleic acid
SMILES,cell number change [%],AC50 [1],AC50 [2]
COc1ccccc1NCC(=O)c1ccc(C)c(C)c1,10.6,–,–
Cc1cc(F)ccc1S(=O)(=O)N1CCCCC1CCNC(=O)C(=O)NCc1ccccn1 (configuration not stated),1.98,"3.26 µM [falling, single point]","14.6 µM [falling, partial curve]"
CC(C)OP(=O)(c1ccc(N(C)C)cc1)C(O)c1ccc(Br)cc1 (configuration not stated),16.8,–,"18.4 µM [rising, partial curve]"
Cc1cc(N2C(=O)CCC2=O)ccc1NC(=O)c1cccs1,–,"0.366 µM [rising, single point]",–
O=C(c1cc(-c2ccc(F)cc2)nc2ccccc12)N1CCN(C2CCS(=O)(=O)C2)CC1 (configuration not stated),0.648,–,–
COc1c(C(=O)Nc2nnc(C3CC3)s2)csc1Cl,–,–,"6.51 µM [rising, single point]"
CC1CCCC(NC(=O)COC(=O)c2cc(S(=O)(=O)N3CCOCC3)ccc2F)C1C (configuration not stated),-9.4,–,"0.58 µM [falling, single point]"
CCc1cccc2c(C(=O)CN3C(=O)NC(C)(c4cccc5ccccc45)C3=O)c[nH]c12 (configuration not stated),-33,"11.6 µM [falling, partial curve]","13 µM [falling, partial curve]"
COc1cc(C(=O)NNC(=S)NC(=O)c2ccc(F)cc2)cc(OC)c1OC,7.74,–,"6.51 µM [rising, single point]"
O=C(CSc1nc2ccccc2c(=O)n1CCCO)N1CCc2ccccc21,-29,–,"16.4 µM [falling, single point]"
CCOC(=O)c1[nH]c2ccc(OC)cc2c1NC(=O)CCN1CCN(Cc2ccccc2)CC1,38.8,"23.1 µM [rising, single point]","7.31 µM [rising, single point]"
Nc1nc(COc2ccc(Cl)cc2)cs1,–,–,"0.58 µM [falling, single point]"
CCCNC(=O)COC(=O)c1[nH]c(C)c(C(=O)OCC)c1C,77.2,–,"1.64 µM [rising, full curve]"
CCN(CC)S(=O)(=O)c1ccc(NC(=O)C(C)N(c2ccccc2)S(C)(=O)=O)cc1 (configuration not stated),-16.1,–,"29.1 µM [falling, single point]"
O=C(NCCc1ccccc1C(F)(F)F)C1CCC(=O)N(C2CC2)C1 (configuration not stated),37.1,"32.6 µM [rising, single point]",–
CN(CC(=O)Nc1ccccc1C(F)(F)F)C(=O)C1CC1,14.7,–,"0.13 µM [falling, full curve, poor fit]"
CCOC(=O)C1=C(COc2ccccc2)NC(=O)NC1c1ccc(Cl)cc1 (configuration not stated),-9.58,–,"11.6 µM [falling, partial curve]"
Nc1cc(Cl)ccc1N1CCCCC1,-8.59,–,"0.731 µM [falling, full curve, poor fit]"
COc1cccc(N2CCN(CC(=O)NC(C)c3ccccc3)CC2)c1 (configuration not stated),0.824,–,"13 µM [rising, partial curve]"
Cc1n(CC(=O)c2ccc(F)cc2)c2ccccc2[n+]1C,-26.5,–,"23.1 µM [falling, single point]"

SMILES,cell number change [%],AC50 [1],AC50 [2]
CCN1C=C(C(=O)OC)C(c2cccc(OC)c2OC)C(C(=O)OC)=C1,-58.4,"29.1 µM [falling, single point]","23.1 µM [falling, single point]"
CC(C)Nc1nc(SCC(N)=O)nc(N2CCOCC2)n1,-76,"13 µM [falling, partial curve, poor fit]","7.31 µM [falling, single point]"
COc1cccc2c(=O)n(CC(=O)NCCc3ccccc3)ccc12,4.53,–,"0.13 µM [rising, full curve, poor fit]"
Cc1cc(NS(=O)(=O)c2ccc(NC(=S)NC(=O)c3cccnc3)cc2)no1,-18.2,–,–
COc1ccc(C(=O)NC2CC3CCCC(C2)N3Cc2ccccc2)c(OC)c1 (configuration not stated),-0.525,–,"6.51 µM [falling, single point]"
CCOc1cc(NC(=O)C2CC2)c(OCC)cc1NC(=O)c1cccc(F)c1,-6.67,–,–
CCSc1nnc2ccc(-c3cccs3)nn12,-22.4,"2.06 µM [falling, partial curve, poor fit]",–
O=C(COc1ccc(C(=O)NCc2cccnc2)cc1)Nc1cccc(C(F)(F)F)c1,126,"16.4 µM [rising, partial curve]",–
CC(NC(=O)COC(=O)CCc1ccccc1)c1ccccc1 (configuration not stated),-32.8,"3.26 µM [rising, single point]","0.13 µM [falling, full curve, poor fit]"
COc1ccccc1NC(=O)CSc1nnc(CNC(=O)c2ccco2)o1,44.2,"32.6 µM [rising, single point]","29.1 µM [rising, single point]"
CC(=O)c1c[nH]c2ccc(C)cc2c1=O,–,"2.31 µM [rising, single point]",–
Cc1nnc(SCC(=O)Nc2sc3c(c2C(=O)c2ccccc2)CCCC3)s1,29,–,"8.2 µM [rising, partial curve]"
O=C(N/C(=C\c1ccc(Br)cc1)C(=O)N1CCOCC1)c1ccc(Br)o1,23.5,–,–
O=S(=O)(NCC(c1ccco1)N1CCc2ccccc2C1)c1ccc(Br)cc1 (configuration not stated),-61,"29.1 µM [falling, single point]","29.1 µM [falling, single point]"
Cc1ccccc1Nc1nc(N)nc(COC(=O)[C@@H](NC(=O)c2ccccc2Cl)C(C)C)n1,–,"4.61 µM [falling, partial curve]","2.91 µM [falling, partial curve]"
O=c1c(Cc2c(F)cccc2Cl)c(O)ccn1CCc1c[nH]c2ccccc12,-35.2,"11.2 µM [falling, partial curve]","22.4 µM [falling, partial curve]"
CCOC(=O)N1CCN(C(=O)c2ccc(Cl)nc2)CC1,-12.9,–,"18.4 µM [falling, single point]"
CCn1cc(C2=NOC(C(=O)O)C2)c(C)n1 (configuration not stated),-5.77,–,"0.00651 µM [rising, full curve, poor fit]"
Cc1ccc(Nc2nc(N/N=C\c3ccc4c(c3)OCO4)nc(N3CCOCC3)n2)cc1,-34.9,"1.84 µM [rising, partial curve]",–
CCN1/C(=N\N)c2cccc3cccc1c23,-15.1,"2.59 µM [falling, single point]","5.17 µM [falling, single point]"

# 5 compounds already listed, arranged by number of heavy atoms, ascending.
SMILES,cell number change [%],AC50 [1],AC50 [2]
COc1ccccc1NCC(=O)c1ccc(C)c(C)c1,10.6,–,–
CC(C)Nc1nc(SCC(N)=O)nc(N2CCOCC2)n1,-76,"13 µM [falling, partial curve, poor fit]","7.31 µM [falling, single point]"
O=C(NCCc1ccccc1C(F)(F)F)C1CCC(=O)N(C2CC2)C1 (configuration not stated),37.1,"32.6 µM [rising, single point]",–
Cc1cc(NS(=O)(=O)c2ccc(NC(=S)NC(=O)c3cccnc3)cc2)no1,-18.2,–,–
Cc1cc(F)ccc1S(=O)(=O)N1CCCCC1CCNC(=O)C(=O)NCc1ccccn1 (configuration not stated),1.98,"3.26 µM [falling, single point]","14.6 µM [falling, partial curve]"

# Following part.

SMILES,cell number change [%],AC50 [1],AC50 [2]
Nc1cccc(CN2CCCC2)c1,-24,–,"7.31 µM [falling, full curve, poor fit]"
Cc1cc(C)c(C)c(S(=O)(=O)N2CCN(C(=O)c3cc(=O)[nH]c4ccccc34)CC2)c1C,-0.0645,–,"3.26 µM [rising, single point]"
O=C(Nc1nc(-c2ccco2)c(-c2ccco2)s1)C1CC(=O)N(c2ccc3c(c2)OCCO3)C1 (configuration not stated),–,"6.51 µM [rising, single point]","6.51 µM [rising, single point]"
Cc1cc(-c2ccco2)n(CC(=O)NCc2ccccc2)n1,-8.6,–,"0.58 µM [falling, single point]"
O=C(Nc1ccc(N2CCOCC2)cc1)c1cccc(S(=O)(=O)N2CCCCCC2)c1,-88.1,"18.4 µM [falling, single point]","29.1 µM [falling, single point]"
Cn1c(=NC(=O)c2ccc(S(=O)(=O)N3CCCc4ccccc43)cc2)sc2cc(S(C)(=O)=O)ccc21,-6.13,–,–
CN(C)c1ccc(-c2nc3cnccn3c2Nc2ccc3c(c2)OCCO3)cc1,–,–,"3.66 µM [falling, single point]"
CSc1ccccc1NC(=O)COC(=O)CCCOc1ccc(C)cc1,-12,–,–
COc1ccc2nc(C)cc(N/N=C/c3ccc(F)cc3)c2c1,-32,"14.6 µM [falling, single point]","1.64 µM [falling, partial curve]"
COc1ccc(OC)c(C(=O)NC(CC(N)=O)c2ccc(NCc3ccc(F)c(F)c3)c([N+](=O)[O-])c2)c1 (configuration not stated),24.6,"5.17 µM [rising, partial curve]",–
COc1cc(NC(=O)Cc2cccs2)ccc1-n1cnnn1,76,"0.326 µM [rising, full curve]","0.461 µM [rising, full curve]"
CCOC(=O)N1CCN(C(=O)C2CCN(S(=O)(=O)c3cc(C)ccc3OC)CC2)CC1,35.1,"10.3 µM [rising, partial curve]",–
COc1cc(NC(=S)NC(=O)c2cc(C)cc(C)c2)ccc1NC(=O)c1cccs1,-19.9,–,"18.4 µM [falling, single point]"
O=C(CC(O)(C(F)(F)F)C(F)(F)F)Nc1ccc(Cl)c(Cl)c1,–,"5.8 µM [falling, single point]","5.8 µM [falling, full curve]"
CN1C=CC=C/C1=C1\SC(=S)N(Cc2ccccc2)C1=O,-49.3,–,"29.1 µM [falling, single point]"
CC(C)CN(C(=O)C1CCCCC1)C1CCS(=O)(=O)C1 (configuration not stated),-51.3,"25.9 µM [falling, partial curve, poor fit]","23.1 µM [falling, partial curve]"
Cc1cccn2c(=O)c3cc(C(=O)NCCCOC(C)C)sc3nc12,29.7,–,–
Cc1ccccc1OCc1n[nH]c(=S)n1-c1cccc(Cl)c1,-29.7,–,"0.58 µM [falling, single point]"
